# Fewer than 10 of roughly 1,400 compounds were called active. This list was built around the results that the source calls inconclusive (neither active nor inactive); the mix of calls is not that of the screen. Calls come from the whole dose curve. A potency beside an inconclusive call is a rough fit, not a confirmed value.
# Assay: Assay for Inhibitors of Influenza NS1 Protein Function: Hit Validation
# Conditions: influenza NS1 function cell assay, 15-point titration; series mostly up to 32.9 µM
# Text: NIH Chemical Genomics Center [NCGC]
# NIH Molecular Libraries Probe Centers Network [MLPCN]
# Assay Submitter (PI): Daniel Engel
# Influenza is a world-wide public health problem and emerging forms of the virus have the potential to cause a pandemic of equal or greater magnitude to the outbreaks recorded in 1918, 1957 or 1968. Vaccine development is proceeding and there also exist two classes of anti-influenza compounds. However these therapeutic modalities are neither fully effective nor widely enough available to fulfill global needs. In addition their potential usefulness against newly emergent strains is not known. Efforts are needed to develop novel agents against influenza virus, including broad-spectrum agents. Identification of small molecules that inhibit NS1 function either directly or by interfering with specific cellular pathways may be a key to increasing our defense against the virus.
# We have miniaturized and optimized a cell based assay in which NS1 from influenza A is expressed in the budding yeast S. cerevisiae. NS1 is a multi-functional protein that counters the host innate immune response and facilitates viral versus cellular gene expression. Expression of NS1 causes a pronounced slow growth phenotype in yeast due to its intrinsic molecular activities. Small molecules that suppress the slow growth phenotype can be identified by a straightforward growth recovery assay using optical density (OD) as the measurement. The same yeast strain not expressing NS1 was used as positive control in the yeast growth recovery assay. The present experiment attempted to confirm the activity of compounds observed in the primary screen.
# The yeast S. cerevisiae control and NS1 expressing cells were kindly supplied by laboratory of Dr. Daniel Engel, University of Virginia. Yeast starter cultures were stored in single use aliquots at -80C.
# 1. Yeast culture medium per liter: 1.2 g Yeast Nitrogen Base (w/out amino acids and Ammonium Sulphate), 5.0g Ammonium Sulphate, 0.77g -URA DO (drop-out) Supplement, adjust pH to 6.0. Adjust to 2% glucose prior to inoculating with yeast.
# 2. Yeast assay medium: 1.2 g Yeast Nitrogen Base (w/out amino acids and Ammonium Sulphate), 5.0g Ammonium Sulphate, 0.77g -URA DO (drop-out) Supplement, adjust pH to 6.0. Adjust to 2% D-galactose prior to inoculating with yeast.
# 1. Inoculate 100 mls of yeast culture medium with 1 ml of frozen yeast aliquote. Incubate overnight at 30C, 250RPM.
# 2. Harvest overnight culture at 4000 RPM and wash pellet with 15 mls H2O 3x.
# 3. Re-suspend washed pellet in 10 mls of yeast assay medium.
# 4. Prepare a 1:100 dilution of re-suspended culture in yeast assay medium.
# 5. Dispense 3.5 ul per well of reagents in step 4 in columns 2-48 in a black clear bottom 1536 well plate.
# 6. Dispense 3.5 ul per well of yeast assay medium in column 1 only.
# 7. Transfer 23 nl of compound per well.
# 8. Dispense 3.5 ul per well of yeast assay medium in columns 1-48.
# 9. Read plate using Viewlux protocol for optical density 600 (OD600) using excitation filter 600nm.
row,SMILES,Potency
1,Cc1ccc(C(=O)Nc2ccccc2C(=O)O)cc1S(=O)(=O)NC1CCCCC1,inactive
2,O=C(Cc1cc(=O)[nH][nH]1)N/N=C/c1c(Cl)cccc1Cl,"inconclusive: 12.6 µM [signal activator, partial curve, poor fit]"
3,COc1ccccc1/C=C1\CCCC2=C1Nc1nnnn1C2c1ccccc1OC (stereo not drawn),"inconclusive: 17.7 µM [signal inhibitor, partial curve, poor fit]"
4,O=C(/C=C/c1ccc(Br)cc1)c1ccc(NC2=NCCCS2)cc1,"inconclusive: 6.3 µM [signal inhibitor, full curve]"
5,O=C(COc1ccc(Cl)cc1)NNC(=S)NCc1ccccc1,"inconclusive: 11.2 µM [signal inhibitor, single point]"
6,Cc1ccc(C)c2[nH]c(=O)c(CN(Cc3ccc4c(c3)OCO4)Cc3nnnn3Cc3ccco3)cc12,inactive
7,O=C(COC(=O)c1cccc(S(=O)(=O)N2CCOCC2)c1)Nc1nc(-c2ccccc2Cl)cs1,"inconclusive: 25.1 µM [signal activator, partial curve, poor fit]"
8,Cc1cc(OCc2ccc(C(=O)NN=C3CCCC3)cc2)ccc1Cl,"inconclusive: 14.1 µM [signal inhibitor, partial curve]"
9,Cc1ccc(C(=O)CSc2nc(O)cc(=O)[nH]2)cc1C,"inconclusive: 19.9 µM [signal activator, partial curve]"
10,COc1cccc(C(=O)Nc2ncc3c(n2)CC(c2ccc(OC)cc2OC)CC3=O)c1 (stereo not drawn),inactive
11,O=C1c2cccc3c(N4CCOCC4)c([N+](=O)[O-])cc(c23)C(=O)N1c1cccc2ccccc12,inactive
12,c1ccc(-c2nc3ccccc3[nH]2)nc1,"inconclusive: 11.2 µM [signal inhibitor, partial curve, poor fit]"
13,Cc1ccc(/C=N/NC(=O)CN(Cc2ccccc2)S(=O)(=O)c2ccc3c(c2)OCCO3)cc1,inactive
14,COc1ccc(Nc2nc(NCc3ccco3)nc(N/N=C/c3ccc(O)cc3)n2)cc1,"inconclusive: 12.6 µM [signal inhibitor, single point]"
15,COc1cc(/C=N/NC(=O)c2cc3ccccc3cc2O)ccc1OCCN1CCCCC1,inactive
16,COCc1nc2ccccc2n1Cc1ccccc1Br,"inconclusive: 25.1 µM [signal inhibitor, single point]"
17,Cc1nn(-c2ccccc2)c2sc(-c3n[nH]c(=S)o3)cc12,"inconclusive: 2.81 µM [signal inhibitor, full curve]"
18,CCOC(=O)N1CCN(S(=O)(=O)N2CCCC(C(=O)NCc3ccc(OC)cc3)C2)CC1 (stereo not drawn),inactive
19,CCOc1ccccc1CNC(=O)CCCC(=O)n1nc(C)c2ccccc21,"inconclusive: 2.81 µM [signal inhibitor, full curve, poor fit]"
20,Cc1c(C(=O)OCC(=O)N2CC(C)OC(C)C2)oc2ccc(Br)cc12 (stereo not drawn),"inconclusive: 19.9 µM [signal inhibitor, partial curve, poor fit]"

# An excerpt of these results, as tab-separated lines:
row	SMILES	Potency
4	O=C(/C=C/c1ccc(Br)cc1)c1ccc(NC2=NCCCS2)cc1	inconclusive: 6.3 µM [signal inhibitor, full curve]
5	O=C(COc1ccc(Cl)cc1)NNC(=S)NCc1ccccc1	inconclusive: 11.2 µM [signal inhibitor, single point]
6	Cc1ccc(C)c2[nH]c(=O)c(CN(Cc3ccc4c(c3)OCO4)Cc3nnnn3Cc3ccco3)cc12	inactive
7	O=C(COC(=O)c1cccc(S(=O)(=O)N2CCOCC2)c1)Nc1nc(-c2ccccc2Cl)cs1	inconclusive: 25.1 µM [signal activator, partial curve, poor fit]
8	Cc1cc(OCc2ccc(C(=O)NN=C3CCCC3)cc2)ccc1Cl	inconclusive: 14.1 µM [signal inhibitor, partial curve]
9	Cc1ccc(C(=O)CSc2nc(O)cc(=O)[nH]2)cc1C	inconclusive: 19.9 µM [signal activator, partial curve]
10	COc1cccc(C(=O)Nc2ncc3c(n2)CC(c2ccc(OC)cc2OC)CC3=O)c1 (stereo not drawn)	inactive
11	O=C1c2cccc3c(N4CCOCC4)c([N+](=O)[O-])cc(c23)C(=O)N1c1cccc2ccccc12	inactive
12	c1ccc(-c2nc3ccccc3[nH]2)nc1	inconclusive: 11.2 µM [signal inhibitor, partial curve, poor fit]
13	Cc1ccc(/C=N/NC(=O)CN(Cc2ccccc2)S(=O)(=O)c2ccc3c(c2)OCCO3)cc1	inactive
14	COc1ccc(Nc2nc(NCc3ccco3)nc(N/N=C/c3ccc(O)cc3)n2)cc1	inconclusive: 12.6 µM [signal inhibitor, single point]
15	COc1cc(/C=N/NC(=O)c2cc3ccccc3cc2O)ccc1OCCN1CCCCC1	inactive

# Next part

row,SMILES,Potency
1,CN(C)c1ccc(C(CNC(=O)c2ccccc2)c2c[nH]c3ccccc23)cc1 (stereo not drawn),"inconclusive: 15.8 µM [signal inhibitor, partial curve]"
2,CN(N=O)c1cc(O)ccc1O,"inconclusive: 19.9 µM [signal inhibitor, partial curve, poor fit]"
3,c1ccc(-c2nnc(CN3CCCc4ccccc43)o2)cc1,"inconclusive: 9.98 µM [signal inhibitor, partial curve, poor fit]"
4,Cc1ccc(C2(C)NC(=O)N(CC(=O)NCCC3=CCCCC3)C2=O)cc1 (stereo not drawn),inactive
5,Cc1ccc(NC(=O)CSc2nc(O)cc(=O)n2C)cc1,"inconclusive: 15.8 µM [signal activator, partial curve, poor fit]"
6,CN1C(=O)C(c2nnc(Nc3cccc4ccccc34)s2)C2CC1(C)Oc1ccccc12 (stereo not drawn),inactive
7,CCOC(=O)c1ccc(S(=O)(=O)NCC(c2ccc(N(C)C)cc2)c2c[nH]c3ccccc23)cc1 (stereo not drawn),"inconclusive: 25.1 µM [signal inhibitor, single point]"
8,CN(Cc1ccccc1)c1ccc(C(CC(N)=O)NC(=O)c2ccc(Br)cc2)cc1[N+](=O)[O-] (stereo not drawn),"inconclusive: 22.3 µM [signal inhibitor, single point]"
9,Cc1nc(SCC(=O)NCc2ccco2)c2c3c(sc2n1)CCCC3,"inconclusive: 4.46 µM [signal inhibitor, full curve]"
10,COc1ccc(/C=N/NC(N)=S)cc1OC(=O)c1cccc2ccccc12,"inconclusive: 22.3 µM [signal inhibitor, single point]"
11,CCCCn1c(C)cc2cc(O)ccc21,"inconclusive: 19.9 µM [signal activator, partial curve, poor fit]"
12,CN(C)/C=C/C(=O)c1nnn(C2CCCCC2)c1NC1CCCCC1,"inconclusive: 8.89 µM [signal inhibitor, partial curve]"
13,CC(C)C[C@H]1C(=O)N2CCCC2[C@]2(O)O[C@](NC(=O)[C@@H]3C=C4c5cccc6[nH]c(Br)c(c56)C[C@H]4N(C)C3)(C(C)C)C(=O)N12 (stereo partly drawn),"inconclusive: 3.97 µM [signal inhibitor, partial curve, poor fit]"
14,CC(/C=C/c1ccc(N(C)C)cc1)=N\N=C1\NC(=O)CC(C(=O)Nc2ccccc2)S1 (stereo not drawn),inactive
15,O=c1[nH]c(C2CCCN(S(=O)(=O)c3ccccc3)C2)nc2c1nnn2Cc1ccccc1Br (stereo not drawn),"inconclusive: 22.3 µM [signal inhibitor, single point]"
16,CC1(c2ccc(OCC#N)cc2)C=C(c2ccc(OCC#N)cc2)n2nc(C(F)(F)F)nc2N1 (stereo not drawn),"inconclusive: 7.06 µM [signal inhibitor, partial curve, poor fit]"
17,CCC(C)(C)n1nnnc1C(c1cc2cc(OC)c(OC)cc2[nH]c1=O)N1CCc2ccccc21 (stereo not drawn),"inconclusive: 2.23 µM [signal inhibitor, full curve, poor fit]"
18,Fc1ccc(Cn2nnnc2CN2CCC(n3nnc4cc(C(F)(F)F)ccc43)CC2)cc1,"inconclusive: 17.7 µM [signal inhibitor, partial curve, poor fit]"
19,O=C(CSc1nc2ccccc2c(=O)n1-c1ccc(F)cc1)Nc1ccc(C(=O)O)cc1,"inconclusive: 5.61 µM [signal activator, partial curve, poor fit]"
20,O=C(Nc1cccc2ccccc12)c1ccccc1NS(=O)(=O)c1cccc2cccnc12,"inconclusive: 22.3 µM [signal inhibitor, single point]"

row,SMILES,Potency
1,Cc1cccc2sc(NNC(=O)c3ccc(S(=O)(=O)N4CCc5ccccc5C4)cc3)nc12,"inconclusive: 0.706 µM [signal inhibitor, full curve, poor fit]"
2,Cc1ccc(C(=O)NC(=S)Nc2cccc(NC(=O)c3ccccc3Cl)c2)cc1[N+](=O)[O-],"inconclusive: 8.89 µM [signal inhibitor, single point]"
3,COC(=O)c1c(NC(=O)CN2C(=O)c3ccccc3C2=O)sc(Cc2ccc3c(c2)OCO3)c1C,inactive
4,CC(Sc1nc(N)cc(=O)[nH]1)C(=O)Nc1cccc(Cl)c1 (stereo not drawn),inactive
5,COc1ccc(C2CC(c3ccccc3Cl)Nc3ncnn32)cc1OC (stereo not drawn),"inconclusive: 0.706 µM [signal inhibitor, full curve, poor fit]"
6,COc1ccc(-c2nn(-c3ccccc3)cc2/C=C2/SC(=S)N(CCC(=O)O)C2=O)c(C)c1,"inconclusive: 22.3 µM [signal inhibitor, single point]"
7,COc1ccc(N(C)S(=O)(=O)c2cccc(C(=O)N3CCN(S(=O)(=O)c4ccc(C)cc4)CC3)c2)cc1,inactive
8,CCOc1ccc(C(C#N)N2CCOCC2)cc1OC (stereo not drawn),"inconclusive: 12.6 µM [signal activator, partial curve]"
9,CCOC(=O)C1=C(c2ccccc2)NC(SCC(=O)Nc2ccccc2C)=C(C#N)C1c1ccco1 (stereo not drawn),"inconclusive: 17.7 µM [signal inhibitor, partial curve, poor fit]"
10,CCC(=O)N1CCC2(CC1)Oc1ccc(Cl)cc1C(=O)C21CC(c2ccccc2)=NO1 (stereo not drawn),"inconclusive: 22.3 µM [signal inhibitor, single point]"
11,COc1ccccc1C1N(c2ccc(Cl)cc2)C(=O)C2CCCN21 (stereo not drawn),inactive
12,COc1ccccc1C(=O)NNC(=S)NC(=O)c1sc2ccccc2c1Cl,"inconclusive: 3.54 µM [signal inhibitor, full curve, poor fit]"
13,CN(/N=C\c1ccc(O)c(O)c1)c1nc(-c2ccccc2)cc(-c2ccccc2)n1,"inconclusive: 19.9 µM [signal inhibitor, single point]"
14,CCCn1c(C)cc(C(=O)COC(=O)c2c(C)nn(-c3ccccc3)c2C)c1C,"inconclusive: 19.9 µM [signal inhibitor, partial curve]"
15,Cc1cc(N2CCOCC2)nc2ccc(NC(=O)CCC(=O)N3CCC(C)CC3)cc12,"inconclusive: 5 µM [signal inhibitor, full curve, poor fit]"
16,O=C(N/N=C/c1cccc(O)c1)c1ccc(COc2ccccc2Br)cc1,"inconclusive: 19.9 µM [signal inhibitor, partial curve]"
17,c1ccc(-c2ccc(C3=Nn4c(Cn5nnc6ccccc65)nnc4SC3)cc2)cc1,"inconclusive: 19.9 µM [signal inhibitor, partial curve]"
18,O=C(Nc1nc(-c2ccccc2)cs1)c1ccc(S(=O)(=O)N2CCc3ccccc32)cc1,"inconclusive: 0.316 µM [signal inhibitor, full curve, poor fit]"

# Looked up above.
# `O=C(N/N=C/c1cccc(O)c1)c1ccc(COc2ccccc2Br)cc1` | Potency: inconclusive: 19.9 µM [signal inhibitor, partial curve]
# `COC(=O)c1c(NC(=O)CN2C(=O)c3ccccc3C2=O)sc(Cc2ccc3c(c2)OCO3)c1C` | Potency: inactive

# — PubChem BioAssay AID492980 (National Center for Advancing Translational Sciences (NCATS), 2010)
